The supplement of paper PMC8728848
This is one part of the list.

Assays:
Experiment in all cases: glycan array binding signal (z-score within array); higher = stronger binding
Details in all cases: glycan notation: IUPAC condensed, linker removed
Gal3S(b1-4)Glc = target: Gal3S(b1-4)Glc
Method in brief: (§1)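 Arrays were curated from the Consortium for Functional Glycomics database, 3228 in total, and kept only where the protein sequence was available. Binding is expressed as a within-array Z-score. This score was averaged across arrays of the same protein sequence at different concentrations or buffers and across linkers, and negative values can be read as non-binding.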

Gal3S(b1-4)Glc6S = target: Gal3S(b1-4)Glc6S
Method in brief: as §1

Gal3S(b1-4)GlcNAc = target: Gal3S(b1-4)GlcNAc
Method in brief: as §1

[1] = target: Gal3S(b1-4)[Fuc(a1-3)]Glc6S
Method in brief: as §1

[2] = target: Gal3S(b1-4)[Fuc(a1-3)]GlcNAc
Method in brief: as §1

[3] = target: Gal3S(b1-4)[Fuc(a1-3)]GlcNAc6S
Method in brief: as §1

Gal3S4S(b1-4)GlcNAc = target: Gal3S4S(b1-4)GlcNAc
Method in brief: as §1

Gal3S6S(b1-4)GlcNAc = target: Gal3S6S(b1-4)GlcNAc
Method in brief: as §1

Gal3S6S(b1-4)GlcNAc6S = target: Gal3S6S(b1-4)GlcNAc6S
Method in brief: as §1

Gal4S(b1-4)GlcNAc = target: Gal4S(b1-4)GlcNAc
Method in brief: as §1

Gal4S6S(b1-4)GlcNAc = target: Gal4S6S(b1-4)GlcNAc
Method in brief: as §1

Gal6P(b1-4)GlcNAc = target: Gal6P(b1-4)GlcNAc
Method in brief: as §1

Gal6S(b1-3)GlcNAc = target: Gal6S(b1-3)GlcNAc
Method in brief: as §1

Gal6S(b1-3)GlcNAc6S = target: Gal6S(b1-3)GlcNAc6S
Method in brief: as §1

Gal6S(b1-4)Glc = target: Gal6S(b1-4)Glc
Method in brief: as §1

Gal6S(b1-4)Glc6S = target: Gal6S(b1-4)Glc6S
Method in brief: as §1

Gal6S(b1-4)GlcNAc = target: Gal6S(b1-4)GlcNAc
Method in brief: as §1

Gal6S(b1-4)GlcNAc6S = target: Gal6S(b1-4)GlcNAc6S
Method in brief: as §1

GalNAc(a1-3)Gal = target: GalNAc(a1-3)Gal
Method in brief: as §1

GalNAc(a1-3)GalNAc = target: GalNAc(a1-3)GalNAc
Method in brief: as §1

[4] = target: GalNAc(a1-3)GalNAc(b1-3)Gal(a1-4)Gal(b1-4)Glc
Method in brief: as §1

[5] = target: GalNAc(a1-3)GalNAc(b1-3)Gal(a1-4)Gal(b1-4)GlcNAc
Method in brief: as §1

GalNAc(b1-3)Gal = target: GalNAc(b1-3)Gal
Method in brief: as §1

[6] = target: GalNAc(b1-3)Gal(a1-4)Gal(b1-4)GlcNAc
Method in brief: as §1

[7] = target: GalNAc(b1-3)Gal(a1-4)Gal(b1-4)GlcNAc(b1-3)Gal(b1-4)Glc
Method in brief: as §1

[8] = target: GalNAc(b1-3)Gal(a1-6)Gal(b1-4)Glc
Method in brief: as §1

GalNAc(b1-3)GalNAc = target: GalNAc(b1-3)GalNAc
Method in brief: as §1

GalNAc(b1-3)GlcNAc = target: GalNAc(b1-3)GlcNAc
Method in brief: as §1

GalNAc(b1-4)Gal(b1-4)Glc = target: GalNAc(b1-4)Gal(b1-4)Glc
Method in brief: as §1

GalNAc(b1-4)GlcNAc = target: GalNAc(b1-4)GlcNAc
Method in brief: as §1

[9] = target: GalNAc(b1-4)GlcNAc(b1-2)Man
Method in brief: as §1

[10] = target: GalNAc(b1-4)GlcNAc(b1-2)Man(a1-3)[GalNAc(b1-4)GlcNAc(b1-2)Man(a1-6)]Man(b1-4)GlcNAc(b1-4)GlcNAc
Method in brief: as §1

[11] = target: GalNAc(b1-4)GlcNAc(b1-3)GalNAc(b1-4)GlcNAc
Method in brief: as §1

GalNAc(b1-4)GlcNAc6S = target: GalNAc(b1-4)GlcNAc6S
Method in brief: as §1

GalNAc(b1-6)GalNAc = target: GalNAc(b1-6)GalNAc
Method in brief: as §1

GalNAc3S(b1-4)GlcNAc = target: GalNAc3S(b1-4)GlcNAc
Method in brief: as §1

GalNAc3S(b1-4)GlcNAc3S = target: GalNAc3S(b1-4)GlcNAc3S
Method in brief: as §1

[12] = target: GalNAc3S(b1-4)[Fuc(a1-3)]GlcNAc
Method in brief: as §1

GalNAc4S6S(b1-4)GlcNAc = target: GalNAc4S6S(b1-4)GlcNAc
Method in brief: as §1

GalNAc6S(b1-4)GlcNAc = target: GalNAc6S(b1-4)GlcNAc
Method in brief: as §1

Glc(a1-4)Glc = target: Glc(a1-4)Glc
Method in brief: as §1

[13] = target: Glc(a1-4)Glc(a1-4)Glc(a1-4)Glc
Method in brief: as §1

Glc(a1-6)Glc(a1-6)Glc = target: Glc(a1-6)Glc(a1-6)Glc
Method in brief: as §1

[14] = target: Glc(a1-6)Glc(a1-6)Glc(a1-6)Glc
Method in brief: as §1

Glc(b1-4)Glc = target: Glc(b1-4)Glc
Method in brief: as §1

B1: Loc1 (Escherichia coli) (protein)
chain: APCALTNVGEQRGTYILKPLSMKGNLTAEKIENTGNIIECTDLQETTNAIKVHFLTQNALKFKVGSRHYIINFPFEYDGKKIELPGKSSYNLEEMLSAINFTIPYSIASVSDSSNTADIFPGTPFPLLFEIEVSSCTGNNTNCNSVRFNYNLNTILQVNLMTHHHHHH
glycan array binding signal (z-score) (Gal3S(b1-4)Glc): 0.238 | glycan array binding signal (z-score) (Gal3S(b1-4)Glc6S): -0.007 | glycan array binding signal (z-score) (Gal3S(b1-4)GlcNAc): -0.465 | glycan array binding signal (z-score) [1]: -0.344 | glycan array binding signal (z-score) [2]: 0.325 | glycan array binding signal (z-score) [3]: -0.418 | glycan array binding signal (z-score) (Gal3S4S(b1-4)GlcNAc): -1.24 | glycan array binding signal (z-score) (Gal3S6S(b1-4)GlcNAc): -0.067 | glycan array binding signal (z-score) (Gal3S6S(b1-4)GlcNAc6S): -0.59 | glycan array binding signal (z-score) (Gal4S(b1-4)GlcNAc): -0.558 | glycan array binding signal (z-score) (Gal4S6S(b1-4)GlcNAc): 0.199 | glycan array binding signal (z-score) (Gal6P(b1-4)GlcNAc): -0.991 | glycan array binding signal (z-score) (Gal6S(b1-3)GlcNAc): 0.435 | glycan array binding signal (z-score) (Gal6S(b1-3)GlcNAc6S): -0.505 | glycan array binding signal (z-score) (Gal6S(b1-4)Glc): 0.962 | glycan array binding signal (z-score) (Gal6S(b1-4)Glc6S): 0.298 | glycan array binding signal (z-score) (Gal6S(b1-4)GlcNAc): 0.112 | glycan array binding signal (z-score) (Gal6S(b1-4)GlcNAc6S): -0.654 | glycan array binding signal (z-score) (GalNAc(a1-3)Gal): -0.715 | glycan array binding signal (z-score) (GalNAc(a1-3)GalNAc): -0.359 | glycan array binding signal (z-score) [4]: 0.794 | glycan array binding signal (z-score) [5]: -0.596 | glycan array binding signal (z-score) (GalNAc(b1-3)Gal): -0.577 | glycan array binding signal (z-score) [6]: 0.417 | glycan array binding signal (z-score) [7]: 0.069 | glycan array binding signal (z-score) [8]: 0.35 | glycan array binding signal (z-score) (GalNAc(b1-3)GalNAc): -0.455 | glycan array binding signal (z-score) (GalNAc(b1-3)GlcNAc): -0.132 | glycan array binding signal (z-score) (GalNAc(b1-4)Gal(b1-4)Glc): 0.054 | glycan array binding signal (z-score) (GalNAc(b1-4)GlcNAc): 0.831 | glycan array binding signal (z-score) [9]: -0.626 | glycan array binding signal (z-score) [10]: 0.317 | glycan array binding signal (z-score) [11]: 0.68 | glycan array binding signal (z-score) (GalNAc(b1-4)GlcNAc6S): 0.365 | glycan array binding signal (z-score) (GalNAc(b1-6)GalNAc): -0.374 | glycan array binding signal (z-score) (GalNAc3S(b1-4)GlcNAc): 0.667 | glycan array binding signal (z-score) (GalNAc3S(b1-4)GlcNAc3S): 0.553 | glycan array binding signal (z-score) [12]: 0.363 | glycan array binding signal (z-score) (GalNAc4S6S(b1-4)GlcNAc): -0.289 | glycan array binding signal (z-score) (GalNAc6S(b1-4)GlcNAc): 0.258 | glycan array binding signal (z-score) (Glc(a1-4)Glc): -3.91 | glycan array binding signal (z-score) [13]: -0.712 | glycan array binding signal (z-score) (Glc(a1-6)Glc(a1-6)Glc): -0.485 | glycan array binding signal (z-score) [14]: -0.147 | glycan array binding signal (z-score) (Glc(b1-4)Glc): -0.165
